# Experimental data: the supplement of paper PMC8728848
# This is one part of the list.
# Columns and labels:
# Assay in all cases: glycan array binding signal (z-score within array); higher = stronger binding
# Settings in all cases: glycan notation: IUPAC condensed, linker removed
# Gal6S(b1-4)Glc = target: Gal6S(b1-4)Glc
# How it was run: (§1)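 The Consortium for Functional Glycomics database supplied 3228 glycan arrays, of which those lacking an available protein sequence were dropped. The binding signal, a within-array Z-score, was averaged across arrays of the same protein sequence and across linkers. Negative scores can be read as non-binding.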
# Gal6S(b1-4)Glc6S = target: Gal6S(b1-4)Glc6S
# How it was run: as §1
# Gal6S(b1-4)GlcNAc = target: Gal6S(b1-4)GlcNAc
# How it was run: as §1
# Gal6S(b1-4)GlcNAc6S = target: Gal6S(b1-4)GlcNAc6S
# How it was run: as §1
# GalNAc(a1-3)Gal = target: GalNAc(a1-3)Gal
# How it was run: as §1
# GalNAc(a1-3)GalNAc = target: GalNAc(a1-3)GalNAc
# How it was run: as §1
# [1] = target: GalNAc(a1-3)GalNAc(b1-3)Gal(a1-4)Gal(b1-4)Glc
# How it was run: as §1
# [2] = target: GalNAc(a1-3)GalNAc(b1-3)Gal(a1-4)Gal(b1-4)GlcNAc
# How it was run: as §1
# GalNAc(b1-3)Gal = target: GalNAc(b1-3)Gal
# How it was run: as §1
# [3] = target: GalNAc(b1-3)Gal(a1-4)Gal(b1-4)GlcNAc
# How it was run: as §1
# [4] = target: GalNAc(b1-3)Gal(a1-4)Gal(b1-4)GlcNAc(b1-3)Gal(b1-4)Glc
# How it was run: as §1
# [5] = target: GalNAc(b1-3)Gal(a1-6)Gal(b1-4)Glc
# How it was run: as §1
# GalNAc(b1-3)GalNAc = target: GalNAc(b1-3)GalNAc
# How it was run: as §1
# GalNAc(b1-3)GlcNAc = target: GalNAc(b1-3)GlcNAc
# How it was run: as §1
# GalNAc(b1-4)Gal(b1-4)Glc = target: GalNAc(b1-4)Gal(b1-4)Glc
# How it was run: as §1
# GalNAc(b1-4)GlcNAc = target: GalNAc(b1-4)GlcNAc
# How it was run: as §1
# [6] = target: GalNAc(b1-4)GlcNAc(b1-2)Man
# How it was run: as §1
# [7] = target: GalNAc(b1-4)GlcNAc(b1-2)Man(a1-3)[GalNAc(b1-4)GlcNAc(b1-2)Man(a1-6)]Man(b1-4)GlcNAc(b1-4)GlcNAc
# How it was run: as §1
# [8] = target: GalNAc(b1-4)GlcNAc(b1-3)GalNAc(b1-4)GlcNAc
# How it was run: as §1
# GalNAc(b1-4)GlcNAc6S = target: GalNAc(b1-4)GlcNAc6S
# How it was run: as §1
# GalNAc(b1-6)GalNAc = target: GalNAc(b1-6)GalNAc
# How it was run: as §1
# GalNAc3S(b1-4)GlcNAc = target: GalNAc3S(b1-4)GlcNAc
# How it was run: as §1
# GalNAc3S(b1-4)GlcNAc3S = target: GalNAc3S(b1-4)GlcNAc3S
# How it was run: as §1
# [9] = target: GalNAc3S(b1-4)[Fuc(a1-3)]GlcNAc
# How it was run: as §1
# GalNAc4S6S(b1-4)GlcNAc = target: GalNAc4S6S(b1-4)GlcNAc
# How it was run: as §1
# GalNAc6S(b1-4)GlcNAc = target: GalNAc6S(b1-4)GlcNAc
# How it was run: as §1
# Glc(a1-4)Glc = target: Glc(a1-4)Glc
# How it was run: as §1
# [10] = target: Glc(a1-4)Glc(a1-4)Glc(a1-4)Glc
# How it was run: as §1
# Glc(a1-6)Glc(a1-6)Glc = target: Glc(a1-6)Glc(a1-6)Glc
# How it was run: as §1
# [11] = target: Glc(a1-6)Glc(a1-6)Glc(a1-6)Glc
# How it was run: as §1
# Glc(b1-4)Glc = target: Glc(b1-4)Glc
# How it was run: as §1
# Glc(b1-6)Glc = target: Glc(b1-6)Glc
# How it was run: as §1
# GlcA(b1-3)Gal = target: GlcA(b1-3)Gal
# How it was run: as §1
# GlcA(b1-3)GlcNAc = target: GlcA(b1-3)GlcNAc
# How it was run: as §1
# GlcA(b1-6)Gal = target: GlcA(b1-6)Gal
# How it was run: as §1
# [12] = target: GlcA3S(b1-3)Gal(b1-4)GlcNAc(b1-2)Man
# How it was run: as §1
# [13] = target: GlcA3S(b1-3)Gal(b1-4)GlcNAc(b1-3)Gal(b1-4)Glc
# How it was run: as §1
# [14] = target: GlcNAc(a1-3)Gal(b1-4)GlcNAc
# How it was run: as §1
# [15] = target: GlcNAc(a1-4)Gal(b1-3)GlcNAc
# How it was run: as §1
# [16] = target: GlcNAc(a1-4)Gal(b1-4)GalNAc
# How it was run: as §1
# [17] = target: GlcNAc(a1-4)Gal(b1-4)GlcNAc
# How it was run: as §1
# [18] = target: GlcNAc(a1-4)Gal(b1-4)GlcNAc(b1-3)Gal(b1-4)Glc
# How it was run: as §1
# [19] = target: GlcNAc(a1-4)Gal(b1-4)GlcNAc(b1-3)Gal(b1-4)GlcNAc
# How it was run: as §1
# [20] = target: GlcNAc(a1-4)Gal(b1-4)GlcNAc(b1-3)Gal(b1-4)GlcNAc(b1-3)Gal(b1-4)GlcNAc
# How it was run: as §1
# [21] = target: GlcNAc(a1-4)Gal(b1-4)GlcNAc(b1-3)Gal(b1-4)[Fuc(a1-3)]GlcNAc(b1-3)Gal(b1-4)[Fuc(a1-3)]GlcNAc
# How it was run: as §1
binder,measurement,setting,value
"AT1G80310(18) (Arabidopsis thaliana), Q0WP36 (protein) METTTTPLLPGDRSRCGWLRRRLRLKNPLSSELSGAVGDLGTFIPIVLTLTLVSNLDLSTTLIFTGFYNIATGLLFDIPMPVQPMKSIAAVAVSESPHLTPSQIAAAGASTAATLLLLGATGAMSFLYNIIPLPVVRGVQLSQGLQFAFTAIKYVRFNYDTATLKPSSSPRIWLGLDGLILALAALLFIILSTGSGNDREAEDGDLAETSSNESQSRRRRLRLLSSIPSALIVFALGLVLCFIRDPSIFKDLKFGPSKFHILRISWDDWKIGFLRAAIPQIPLSVLNSVIAVCKLSNDLFDKELSATTVSISVGVMNLIGCWFGAMPVCHGAGGLAGQYRFGARSGLSVIFLGIGKLIVGLVFGNSFVRILSQFPIGILGVLLLFAGIELAMASKDMNSKEDSFIMLVCAAVSMTGSSAALGFGCGVVLYLLLKLRTLDCSSVTLFSRSSDESQVDSEAAPRDV",glycan array binding signal (z-score),Gal6S(b1-4)Glc,0.071
same,glycan array binding signal (z-score),Gal6S(b1-4)Glc6S,-0.35
same,glycan array binding signal (z-score),Gal6S(b1-4)GlcNAc,1.14
same,glycan array binding signal (z-score),Gal6S(b1-4)GlcNAc6S,-1.07
same,glycan array binding signal (z-score),GalNAc(a1-3)Gal,1.2
same,glycan array binding signal (z-score),GalNAc(a1-3)GalNAc,-0.595
same,glycan array binding signal (z-score),[1],-0.103
same,glycan array binding signal (z-score),[2],1.26
same,glycan array binding signal (z-score),GalNAc(b1-3)Gal,-0.065
same,glycan array binding signal (z-score),[3],-0.42
same,glycan array binding signal (z-score),[4],-0.794
same,glycan array binding signal (z-score),[5],-0.826
same,glycan array binding signal (z-score),GalNAc(b1-3)GalNAc,1.02
same,glycan array binding signal (z-score),GalNAc(b1-3)GlcNAc,0.16
same,glycan array binding signal (z-score),GalNAc(b1-4)Gal(b1-4)Glc,0.883
same,glycan array binding signal (z-score),GalNAc(b1-4)GlcNAc,3.09
same,glycan array binding signal (z-score),[6],-0.717
same,glycan array binding signal (z-score),[7],-0.392
same,glycan array binding signal (z-score),[8],-0.307
same,glycan array binding signal (z-score),GalNAc(b1-4)GlcNAc6S,-0.579
same,glycan array binding signal (z-score),GalNAc(b1-6)GalNAc,-0.556
same,glycan array binding signal (z-score),GalNAc3S(b1-4)GlcNAc,-0.831
same,glycan array binding signal (z-score),GalNAc3S(b1-4)GlcNAc3S,-0.55
same,glycan array binding signal (z-score),[9],-0.652
same,glycan array binding signal (z-score),GalNAc4S6S(b1-4)GlcNAc,3.56
same,glycan array binding signal (z-score),GalNAc6S(b1-4)GlcNAc,2.89
same,glycan array binding signal (z-score),Glc(a1-4)Glc,-0.658
same,glycan array binding signal (z-score),[10],-0.815
same,glycan array binding signal (z-score),Glc(a1-6)Glc(a1-6)Glc,1.9
same,glycan array binding signal (z-score),[11],-0.389
same,glycan array binding signal (z-score),Glc(b1-4)Glc,1.3
same,glycan array binding signal (z-score),Glc(b1-6)Glc,0.34
same,glycan array binding signal (z-score),GlcA(b1-3)Gal,0.291
same,glycan array binding signal (z-score),GlcA(b1-3)GlcNAc,-0.665
same,glycan array binding signal (z-score),GlcA(b1-6)Gal,-0.36
same,glycan array binding signal (z-score),[12],-0.96
same,glycan array binding signal (z-score),[13],-0.808
same,glycan array binding signal (z-score),[14],-0.113
same,glycan array binding signal (z-score),[15],2.29
same,glycan array binding signal (z-score),[16],-0.769
same,glycan array binding signal (z-score),[17],-0.622
same,glycan array binding signal (z-score),[18],-0.701
same,glycan array binding signal (z-score),[19],-0.72
same,glycan array binding signal (z-score),[20],0.229
same,glycan array binding signal (z-score),[21],0.68

# 3 consecutive records out of the list so far, quoted:
binder,measurement,setting,value
"AT1G80310(18) (Arabidopsis thaliana), Q0WP36 (protein) METTTTPLLPGDRSRCGWLRRRLRLKNPLSSELSGAVGDLGTFIPIVLTLTLVSNLDLSTTLIFTGFYNIATGLLFDIPMPVQPMKSIAAVAVSESPHLTPSQIAAAGASTAATLLLLGATGAMSFLYNIIPLPVVRGVQLSQGLQFAFTAIKYVRFNYDTATLKPSSSPRIWLGLDGLILALAALLFIILSTGSGNDREAEDGDLAETSSNESQSRRRRLRLLSSIPSALIVFALGLVLCFIRDPSIFKDLKFGPSKFHILRISWDDWKIGFLRAAIPQIPLSVLNSVIAVCKLSNDLFDKELSATTVSISVGVMNLIGCWFGAMPVCHGAGGLAGQYRFGARSGLSVIFLGIGKLIVGLVFGNSFVRILSQFPIGILGVLLLFAGIELAMASKDMNSKEDSFIMLVCAAVSMTGSSAALGFGCGVVLYLLLKLRTLDCSSVTLFSRSSDESQVDSEAAPRDV",glycan array binding signal (z-score),[10],-0.815
same,glycan array binding signal (z-score),Glc(a1-6)Glc(a1-6)Glc,1.9
same,glycan array binding signal (z-score),[11],-0.389
